Test results from paper PMC9338799.
Read-outs that look alike come from different tables or passages of the source. These are yes or no findings as the source states them, for the method shown. Binding seen in cells or lysates may run through a third protein. Some entries that bind do so weakly or less than the wild type. For part of these data: Sequences can lack the tags named with a protein. Blank lines part the entries; values can stand above or below the molecule they belong to.

Protein sequences, listed by entry. Tags and fused reporters are not part of them. Lines headed by an entry give the natural chain unless they say otherwise; changes in a name come on top. Chains listed by the source or under a name are the forms on record and can include a tag or linker.
UniProt Q39204: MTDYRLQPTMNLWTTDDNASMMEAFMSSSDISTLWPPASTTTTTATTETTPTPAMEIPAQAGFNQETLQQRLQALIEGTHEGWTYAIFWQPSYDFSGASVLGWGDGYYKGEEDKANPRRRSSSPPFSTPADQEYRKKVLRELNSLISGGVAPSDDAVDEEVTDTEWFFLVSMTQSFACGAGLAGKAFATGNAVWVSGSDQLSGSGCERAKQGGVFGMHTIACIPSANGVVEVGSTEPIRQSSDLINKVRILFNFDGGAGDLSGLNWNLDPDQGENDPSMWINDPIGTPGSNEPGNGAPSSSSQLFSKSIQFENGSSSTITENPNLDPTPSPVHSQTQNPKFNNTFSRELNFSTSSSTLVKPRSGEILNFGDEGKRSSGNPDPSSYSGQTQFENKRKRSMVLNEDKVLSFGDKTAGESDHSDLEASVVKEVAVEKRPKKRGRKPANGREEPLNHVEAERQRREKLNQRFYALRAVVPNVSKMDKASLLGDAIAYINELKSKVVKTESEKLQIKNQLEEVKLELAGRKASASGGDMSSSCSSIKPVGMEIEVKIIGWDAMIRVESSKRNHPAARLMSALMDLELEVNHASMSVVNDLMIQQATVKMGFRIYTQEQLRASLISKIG
MYC2^2K/R-GFP (double lysine mutant of MYC2 fused to GFP) (Q39204, form named): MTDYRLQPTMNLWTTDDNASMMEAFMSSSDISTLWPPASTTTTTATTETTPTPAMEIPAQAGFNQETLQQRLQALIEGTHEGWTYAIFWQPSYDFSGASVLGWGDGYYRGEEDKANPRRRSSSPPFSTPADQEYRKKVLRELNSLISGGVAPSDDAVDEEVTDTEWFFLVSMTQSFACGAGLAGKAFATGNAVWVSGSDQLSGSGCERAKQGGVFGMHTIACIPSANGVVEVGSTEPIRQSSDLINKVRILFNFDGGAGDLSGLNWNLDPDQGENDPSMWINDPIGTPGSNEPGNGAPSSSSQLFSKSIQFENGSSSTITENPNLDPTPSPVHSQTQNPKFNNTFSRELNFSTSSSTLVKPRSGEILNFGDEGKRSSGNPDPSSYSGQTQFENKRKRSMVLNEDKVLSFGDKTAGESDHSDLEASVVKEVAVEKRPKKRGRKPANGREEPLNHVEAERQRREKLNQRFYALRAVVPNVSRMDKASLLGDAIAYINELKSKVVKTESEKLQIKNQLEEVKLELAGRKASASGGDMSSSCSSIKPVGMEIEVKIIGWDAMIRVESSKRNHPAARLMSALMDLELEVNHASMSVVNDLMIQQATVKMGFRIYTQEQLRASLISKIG
UniProt Q9FIP9: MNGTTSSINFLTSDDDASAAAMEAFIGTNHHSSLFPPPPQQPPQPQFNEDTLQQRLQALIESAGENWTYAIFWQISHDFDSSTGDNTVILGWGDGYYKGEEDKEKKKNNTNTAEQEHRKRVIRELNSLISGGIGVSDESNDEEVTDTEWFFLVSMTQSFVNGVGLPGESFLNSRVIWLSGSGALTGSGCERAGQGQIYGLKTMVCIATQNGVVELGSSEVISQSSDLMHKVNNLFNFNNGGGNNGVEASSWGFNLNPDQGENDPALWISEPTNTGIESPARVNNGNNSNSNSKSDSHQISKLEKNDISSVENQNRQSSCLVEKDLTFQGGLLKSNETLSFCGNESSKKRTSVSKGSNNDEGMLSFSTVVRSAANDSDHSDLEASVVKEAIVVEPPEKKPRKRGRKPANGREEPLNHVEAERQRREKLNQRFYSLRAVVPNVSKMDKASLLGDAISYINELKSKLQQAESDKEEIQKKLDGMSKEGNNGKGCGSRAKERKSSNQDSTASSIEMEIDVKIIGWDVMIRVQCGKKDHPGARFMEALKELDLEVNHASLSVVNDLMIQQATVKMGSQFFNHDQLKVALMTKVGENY

Columns and labels:
Test in all cases: co-IP; total protein extract of N. benthamiana leaves transiently co-expressing the GFP- and HA-tagged proteins; anti-GFP beads (Chromotek), 30 min on ice; buffer 100 mM Tris-HCl pH 8.0, 0.1% SDS, 0.5% sodium deoxycholate, 1% glycerol, 50 mM sodium metabisulphite, 100 mM DTT; immunoblot with anti-HA and anti-GFP
[1] = biological target: GFP-tagged MYC2 (wild type) (Arabidopsis thaliana) (UniProt Q39204)
[2] = biological target: MYC2^2K/R-GFP (double lysine mutant of MYC2 fused to GFP) (Arabidopsis thaliana) (UniProt Q39204)
[3] = biological target: MYC2^2K/R-GFP (double lysine mutant of MYC2 fused to GFP) (Arabidopsis thaliana) (UniProt Q39204); remark: listed apart in the source

binding [1]: binds
binding [2]: binds
Molecule: MYC3-HA (from UniProt Q9FIP9 1-592)

binding [3]: binds
B1: AtPUB10-HA (Plant U-box 10, E3 ubiquitin ligase) (enzyme, UniProt Q9C9A6 1-628)
chain: MAGGAITPDSLIGLIAEINEIPGNFGLFKKDCSDLARRVGLLTHLIEEIRDSSPPSESDASSSLNSHECDWWSDLVVGLQAAKRLLSSATSFQARESSDGAAKRISFQFQCVTWKLEKALGDLTYDRYDISDEVREQVELARLQLRRAMQRYGSLNSKKFSSGLSEPMEKDASSNRKVIEKLESIPETVHSLSDEKKFESPPPWKSSSVSLAFFLSKDGDDERLEKAVTENSDDSQKSDNLTIPEDFLCPISLELMKDPAIVSTGQTYERSFIQRWIDCGNLSCPKTQQKLENFTLTPNYVLRSLISQWCTKHNIEQPGGYMNGRTKNSDGSFRDLSGDMSAIRALVCKLSSQSIEDRRTAVSEIRSLSKRSTDNRILIAEAGAIPVLVKLLTSDGDTETQENAVTCILNLSIYEHNKELIMLAGAVTSIVLVLRAGSMEARENAAATLFSLSLADENKIIIGASGAIMALVDLLQYGSVRGKKDAATALFNLCIYQGNKGRAVRAGIVKPLVKMLTDSSSERMADEALTILSVLASNQVAKTAILRANAIPPLIDCLQKDQPRNRENAAAILLCLCKRDTEKLISIGRLGAVVPLMELSRDGTERAKRKANSLLELLRKSSRKLGSL
